Source: US20140005126A1, “SCAFFOLD PEPTIDES” (ISOGENICA LTD, priority 2010, published 2014)
At least one structure is not confirmed: it was looked up by name or label, or the drawing left a doubt. Where a SMILES comes first, the peptide text is derived from it. The star is where a group is joined. Biotin = O=C1N[C@H]2[C@H](CS[C@H]2CCCCC(=O)*)N1

By UniProt entry, the sequences of proteins in these tests, tags left out. Chains listed by the source or under a name are the forms on record and can include a tag or linker.
UniProt P35968, with tags, fused parts or gaps: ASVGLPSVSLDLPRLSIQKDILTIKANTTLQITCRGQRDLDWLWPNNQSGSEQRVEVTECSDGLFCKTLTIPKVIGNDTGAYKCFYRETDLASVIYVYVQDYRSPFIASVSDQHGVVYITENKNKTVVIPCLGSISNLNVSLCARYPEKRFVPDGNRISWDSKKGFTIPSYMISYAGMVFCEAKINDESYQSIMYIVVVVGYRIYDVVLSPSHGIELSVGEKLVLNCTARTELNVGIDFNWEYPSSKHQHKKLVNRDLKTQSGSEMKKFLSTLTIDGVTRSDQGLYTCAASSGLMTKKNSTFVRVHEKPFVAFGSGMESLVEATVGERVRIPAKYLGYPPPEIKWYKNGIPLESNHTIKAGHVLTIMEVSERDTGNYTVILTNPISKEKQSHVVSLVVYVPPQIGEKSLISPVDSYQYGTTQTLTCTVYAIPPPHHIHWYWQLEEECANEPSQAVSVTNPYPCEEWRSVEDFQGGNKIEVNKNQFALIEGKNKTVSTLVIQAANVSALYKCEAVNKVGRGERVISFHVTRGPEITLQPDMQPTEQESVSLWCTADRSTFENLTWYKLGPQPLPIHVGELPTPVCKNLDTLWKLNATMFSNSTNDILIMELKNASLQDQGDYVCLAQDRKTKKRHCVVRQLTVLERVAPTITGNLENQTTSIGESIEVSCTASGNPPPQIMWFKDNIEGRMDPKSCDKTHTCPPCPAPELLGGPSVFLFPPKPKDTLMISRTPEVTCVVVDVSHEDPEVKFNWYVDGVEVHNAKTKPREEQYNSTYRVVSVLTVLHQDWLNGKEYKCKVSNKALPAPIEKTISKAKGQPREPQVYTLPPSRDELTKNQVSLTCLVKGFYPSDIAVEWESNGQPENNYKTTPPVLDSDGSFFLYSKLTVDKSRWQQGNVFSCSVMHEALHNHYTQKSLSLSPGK

Assays:
VEGFR2-Fc fusion = target: T1, VEGFR2-Fc fusion (Homo sapiens, UniProt P35968); experiment: Real time binding assay by biolayer interferometry (Octet Red), steady state analysis; conditions: biotinylated peptide on streptavidin biosensors, 50 ng/μl in PBS; VEGFR2 1 to 100 nM; steady state analysis (Example 2); read-out: dissociation constant for binding to VEGFR2
T1 construct: His tag (only implied: capture on TALON beads, detection with penta His-HRP); purchased R&D Systems

[1] = target: T2, binding of VEGFR2 to VEGF (Homo sapiens, UniProt P35968); experiment: Competition ELISA: binding of VEGFR2 to VEGF-A coated wells in presence of WW domain peptide; conditions: WW-B1 fused to MBP, 10 μM to 156.25 nM, preincubated with 1.25 ng VEGFR2; ELISA 450 nm; read-out: EC50 for inhibition of binding of VEGFR2 to VEGF
T2 construct: His tag (only implied by detection with penta His-HRP); purchased R&D Systems
Description: A competition assay was carried out in which binding of VEGFR2 to VEGF-A (VEGF) was competed by the presence of varying amounts of the selected modified WW domain peptide.
50 ng human VEGF (R&D Systems, Abingdon, UK) 1 μg/ml in PBS was coated per well onto a Maxisorp plate at 37° C. for 140 minutes. The wells were then blocked with 100 μl PBS containing 2% BSA for 55 minutes at room temperature. 1.25 ng VEGFR2 was preincubated with WW-B1 fused to maltose binding protein (MBP) in 50 μl PBS for 45 minutes at room temperature. The activity of the WW-B1 peptide was tested at serial dilutions from 10 μM to 156.25 nM. 50 μl 4% BSA in PBS was added to the preincubated VEGFR2 with WW-B1-MBP and the whole mixture was then added to the VEGF coated ELISA plate and incubated at room temperature for 55 minutes. The plate was then washed with 3 washes in PBS-Tween and 2 washes in PBS. Next 50 μl/well penta His-HRP (QIAgen, diluted 1:500 in 2% BSA in PBS) was added and the mixture incubated at room temperature for 55 minutes, before washing as before. ELISA signals were detected using SureBlue TMB peroxidase substrate (Insight biotechnology, Middlesex, UK) at 450 nm.
As a control, the above process was repeated with wild-type Pin1 WW domain peptide replacing WW-B1. The results are illustrated in FIG. 6.

CC[C@H](C)[C@H](NC(=O)[C@H](CC(=O)O)NC(=O)[C@H](CC(N)=O)NC(=O)[C@@H](NC(=O)[C@H](Cc1ccc(O)cc1)NC(=O)[C@H](CC(C)C)NC(=O)[C@@H](NC(=O)[C@H](CCCNC(=N)N)NC(=O)CNC(=O)[C@@H]1CCCN1C(=O)[C@H](CO)NC(=O)[C@H](CO)NC(=O)[C@H](Cc1c[nH]c2ccccc12)NC(=O)[C@H](CCSC)NC(=O)[C@H](CCCCN)NC(=O)[C@H](Cc1ccc(O)cc1)NC(=O)[C@H](Cc1c[nH]c2ccccc12)NC(=O)CNC(=O)[C@@H]1CCCN1C(=O)[C@@H]1CCCN1C(=O)[C@H](CC(C)C)NC(=O)[C@H](CCCCN)NC(=O)[C@H](CCC(=O)O)NC(=O)[C@H](CCC(=O)O)NC(=O)[C@H](CC(=O)O)NC(=O)[C@H](C)NC(=O)[C@H](CCSC)NC(=O)CCCC[C@@H]1SC[C@@H]2NC(=O)N[C@@H]21)C(C)C)C(C)C)C(=O)N[C@H](C(=O)N[C@@H](Cc1c[nH]cn1)C(=O)N[C@@H](C)C(=O)N[C@@H](Cc1c[nH]cn1)C(=O)N[C@@H](CCCNC(=N)N)C(=O)N[C@@H](Cc1c[nH]c2ccccc12)C(=O)N[C@@H](CCC(=O)O)C(=O)N[C@@H](CCCNC(=N)N)C(=O)N1CCC[C@H]1C(=O)N[C@@H](CO)C(=O)NCC(N)=O)[C@@H](C)O [WW-B1] (Biotin-MADEEKLPPGWYKMWSSPGRVLYVNDITHAHRWERPSG-NH2; N-terminus and C-terminus assumed)
Kd (VEGFR2-Fc fusion): 44 nM
EC50 [1]: 76 nM
